Test results: paper PMC9574752
No constants are given. Whether binding was seen depends on the method and setting. Binding seen in cells or lysates may run through a third protein. Some entries that bind do so weakly or less than the wild type. Tags and fused reporters may be left off the sequences shown.

Target: T1, FLAG-OTUD6B isoform 1 (IF1) (UniProt Q8N6M0)
T1 sequence: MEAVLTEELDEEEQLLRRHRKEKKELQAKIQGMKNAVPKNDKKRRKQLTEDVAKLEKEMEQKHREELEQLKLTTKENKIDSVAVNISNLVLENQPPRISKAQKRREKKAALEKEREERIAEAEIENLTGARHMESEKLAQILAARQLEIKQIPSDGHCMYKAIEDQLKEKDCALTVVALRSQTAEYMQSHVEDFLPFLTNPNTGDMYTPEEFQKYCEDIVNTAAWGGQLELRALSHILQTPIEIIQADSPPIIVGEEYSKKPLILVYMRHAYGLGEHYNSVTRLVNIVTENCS
Experiment: co-IP; FLAG-tagged proteins expressed in HEK293T; whole cell extract (150 mM NaCl, 50 mM Tris-HCl pH 7.5, 5 mM MgCl2, 1 mM EDTA, 0.1% NP-40, 5% glycerol) on FLAG-M2 agarose at 4°C for 1.5-2 h; immunoblot

- binding: binds
B1: LIN28B, endogenous in HEK293T cells (protein, UniProt Q6ZN17 1-250)
chain: MAEGGASKGGGEEPGKLPEPAEEESQVLRGTGHCKWFNVRMGFGFISMINREGSPLDIPVDVFVHQSKLFMEGFRSLKEGEPVEFTFKKSSKGLESIRVTGPGGSPCLGSERRPKGKTLQKRKPKGDRCYNCGGLDHHAKECSLPPQPKKCHYCQSIMHMVANCPHKNVAQPPASSQGRQEAESQPCTSTLPREVGGGHGCTSPPFPQEARAEISERSGRSPQEASSTKSSIAPEEQSKKGPSVQKRKKT
